# This is one part of the list.
# By UniProt entry, the sequences of proteins in these tests, tags left out. Where a name states a change or a piece, a line headed by the entry shows the natural chain unless it says otherwise.
# UniProt Q5TC12: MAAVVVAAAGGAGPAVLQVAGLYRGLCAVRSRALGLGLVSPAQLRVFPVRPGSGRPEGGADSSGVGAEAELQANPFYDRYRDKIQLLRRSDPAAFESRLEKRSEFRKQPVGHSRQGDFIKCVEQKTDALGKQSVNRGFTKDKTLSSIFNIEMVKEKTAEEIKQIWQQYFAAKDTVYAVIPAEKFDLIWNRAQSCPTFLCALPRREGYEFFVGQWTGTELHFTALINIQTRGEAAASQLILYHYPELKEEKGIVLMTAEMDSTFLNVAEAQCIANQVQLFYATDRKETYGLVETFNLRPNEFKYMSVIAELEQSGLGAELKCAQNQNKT
# UniProt Q8NBF6: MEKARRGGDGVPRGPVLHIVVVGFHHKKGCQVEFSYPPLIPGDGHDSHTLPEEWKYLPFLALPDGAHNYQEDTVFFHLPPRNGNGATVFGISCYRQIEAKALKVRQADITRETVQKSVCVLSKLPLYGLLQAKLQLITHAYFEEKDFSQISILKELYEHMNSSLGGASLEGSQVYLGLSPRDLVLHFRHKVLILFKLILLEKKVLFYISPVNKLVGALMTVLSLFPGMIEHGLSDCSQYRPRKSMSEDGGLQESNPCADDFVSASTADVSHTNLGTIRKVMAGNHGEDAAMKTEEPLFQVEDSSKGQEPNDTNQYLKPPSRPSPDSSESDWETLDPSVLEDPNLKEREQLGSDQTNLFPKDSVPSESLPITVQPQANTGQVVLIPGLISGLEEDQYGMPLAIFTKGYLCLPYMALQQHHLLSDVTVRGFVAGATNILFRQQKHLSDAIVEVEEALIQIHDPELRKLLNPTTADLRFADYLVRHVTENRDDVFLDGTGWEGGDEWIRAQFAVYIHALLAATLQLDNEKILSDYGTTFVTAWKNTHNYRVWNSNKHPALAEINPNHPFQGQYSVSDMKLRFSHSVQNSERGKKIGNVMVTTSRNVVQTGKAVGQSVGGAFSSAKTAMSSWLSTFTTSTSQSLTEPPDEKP
# UniProt P61769, whole entry, looked up: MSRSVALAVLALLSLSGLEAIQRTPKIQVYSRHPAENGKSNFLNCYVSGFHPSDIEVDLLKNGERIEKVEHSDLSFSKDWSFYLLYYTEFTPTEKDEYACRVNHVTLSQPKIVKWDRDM
# UniProt P18859: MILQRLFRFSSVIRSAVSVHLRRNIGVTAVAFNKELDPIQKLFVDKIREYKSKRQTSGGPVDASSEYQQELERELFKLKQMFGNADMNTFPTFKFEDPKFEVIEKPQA
# UniProt P48047: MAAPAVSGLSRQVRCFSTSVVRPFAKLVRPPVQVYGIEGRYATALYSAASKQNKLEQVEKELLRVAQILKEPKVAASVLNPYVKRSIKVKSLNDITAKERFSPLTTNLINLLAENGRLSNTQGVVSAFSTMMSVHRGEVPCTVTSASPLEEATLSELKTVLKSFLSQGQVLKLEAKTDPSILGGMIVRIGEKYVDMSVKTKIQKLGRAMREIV
# UniProt Q2TAZ0: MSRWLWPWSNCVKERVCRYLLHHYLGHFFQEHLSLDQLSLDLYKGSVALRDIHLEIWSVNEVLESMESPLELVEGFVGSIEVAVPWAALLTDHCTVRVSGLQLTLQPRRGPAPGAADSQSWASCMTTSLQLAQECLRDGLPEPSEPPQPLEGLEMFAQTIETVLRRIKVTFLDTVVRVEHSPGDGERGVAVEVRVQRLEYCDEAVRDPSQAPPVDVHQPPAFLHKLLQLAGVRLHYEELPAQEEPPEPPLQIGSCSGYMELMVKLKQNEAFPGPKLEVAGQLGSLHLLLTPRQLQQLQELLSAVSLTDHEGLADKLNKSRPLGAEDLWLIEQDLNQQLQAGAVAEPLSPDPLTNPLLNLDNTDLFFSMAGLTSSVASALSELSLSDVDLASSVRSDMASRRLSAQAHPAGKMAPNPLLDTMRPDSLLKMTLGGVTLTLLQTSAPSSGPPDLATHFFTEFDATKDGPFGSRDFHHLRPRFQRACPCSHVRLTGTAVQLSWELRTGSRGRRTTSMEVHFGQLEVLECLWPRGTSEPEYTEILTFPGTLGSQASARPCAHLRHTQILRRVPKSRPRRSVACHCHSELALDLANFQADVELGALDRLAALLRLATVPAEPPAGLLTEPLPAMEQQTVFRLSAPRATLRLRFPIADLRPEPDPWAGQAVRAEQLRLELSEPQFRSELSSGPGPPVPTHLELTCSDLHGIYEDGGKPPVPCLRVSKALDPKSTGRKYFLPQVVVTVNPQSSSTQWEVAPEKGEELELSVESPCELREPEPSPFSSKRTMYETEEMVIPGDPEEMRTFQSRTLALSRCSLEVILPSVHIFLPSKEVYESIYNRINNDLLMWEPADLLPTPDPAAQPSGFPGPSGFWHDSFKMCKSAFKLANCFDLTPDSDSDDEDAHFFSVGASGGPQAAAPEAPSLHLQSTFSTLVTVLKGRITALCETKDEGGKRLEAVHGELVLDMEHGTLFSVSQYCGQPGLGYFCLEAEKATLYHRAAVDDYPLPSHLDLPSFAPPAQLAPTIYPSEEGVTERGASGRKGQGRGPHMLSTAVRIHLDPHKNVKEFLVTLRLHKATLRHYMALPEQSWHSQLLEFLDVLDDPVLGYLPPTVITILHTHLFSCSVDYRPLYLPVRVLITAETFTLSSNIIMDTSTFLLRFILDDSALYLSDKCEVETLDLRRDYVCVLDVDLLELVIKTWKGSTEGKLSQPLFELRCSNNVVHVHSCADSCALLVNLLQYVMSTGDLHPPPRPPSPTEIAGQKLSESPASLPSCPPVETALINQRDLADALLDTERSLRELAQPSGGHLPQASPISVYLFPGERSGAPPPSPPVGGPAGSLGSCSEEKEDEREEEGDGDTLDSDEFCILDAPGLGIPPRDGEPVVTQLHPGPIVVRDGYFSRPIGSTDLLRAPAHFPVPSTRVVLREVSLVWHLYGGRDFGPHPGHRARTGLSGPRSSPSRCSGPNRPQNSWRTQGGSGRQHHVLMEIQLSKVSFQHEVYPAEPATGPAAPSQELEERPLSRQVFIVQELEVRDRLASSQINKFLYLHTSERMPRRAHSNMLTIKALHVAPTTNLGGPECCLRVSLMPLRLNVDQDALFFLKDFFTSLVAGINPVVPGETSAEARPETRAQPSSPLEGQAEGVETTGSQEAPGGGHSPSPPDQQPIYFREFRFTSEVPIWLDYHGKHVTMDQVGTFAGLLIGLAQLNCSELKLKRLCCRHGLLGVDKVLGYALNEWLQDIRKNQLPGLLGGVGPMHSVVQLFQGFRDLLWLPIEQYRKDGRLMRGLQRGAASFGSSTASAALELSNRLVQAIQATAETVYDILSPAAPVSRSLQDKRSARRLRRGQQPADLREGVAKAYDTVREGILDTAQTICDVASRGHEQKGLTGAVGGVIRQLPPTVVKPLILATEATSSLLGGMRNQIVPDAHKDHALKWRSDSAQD
# UniProt O75787, whole entry, looked up: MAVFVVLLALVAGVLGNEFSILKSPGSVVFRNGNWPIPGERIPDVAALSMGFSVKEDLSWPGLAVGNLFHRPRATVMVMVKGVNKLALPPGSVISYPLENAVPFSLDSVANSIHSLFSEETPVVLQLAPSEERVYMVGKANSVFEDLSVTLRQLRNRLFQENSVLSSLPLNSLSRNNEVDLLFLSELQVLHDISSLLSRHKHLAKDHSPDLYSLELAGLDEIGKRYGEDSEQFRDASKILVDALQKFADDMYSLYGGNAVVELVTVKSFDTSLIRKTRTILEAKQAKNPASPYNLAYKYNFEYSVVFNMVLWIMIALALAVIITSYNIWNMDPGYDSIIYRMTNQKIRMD
# UniProt Q8N5M1: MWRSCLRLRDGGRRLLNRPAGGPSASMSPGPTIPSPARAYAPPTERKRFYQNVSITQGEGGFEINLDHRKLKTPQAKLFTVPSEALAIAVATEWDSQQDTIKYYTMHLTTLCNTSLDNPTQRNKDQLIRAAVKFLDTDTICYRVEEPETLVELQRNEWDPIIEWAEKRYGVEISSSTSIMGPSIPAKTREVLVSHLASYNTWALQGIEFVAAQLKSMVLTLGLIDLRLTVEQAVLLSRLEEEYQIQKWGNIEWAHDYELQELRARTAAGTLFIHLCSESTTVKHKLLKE
# UniProt P04424, whole entry, looked up: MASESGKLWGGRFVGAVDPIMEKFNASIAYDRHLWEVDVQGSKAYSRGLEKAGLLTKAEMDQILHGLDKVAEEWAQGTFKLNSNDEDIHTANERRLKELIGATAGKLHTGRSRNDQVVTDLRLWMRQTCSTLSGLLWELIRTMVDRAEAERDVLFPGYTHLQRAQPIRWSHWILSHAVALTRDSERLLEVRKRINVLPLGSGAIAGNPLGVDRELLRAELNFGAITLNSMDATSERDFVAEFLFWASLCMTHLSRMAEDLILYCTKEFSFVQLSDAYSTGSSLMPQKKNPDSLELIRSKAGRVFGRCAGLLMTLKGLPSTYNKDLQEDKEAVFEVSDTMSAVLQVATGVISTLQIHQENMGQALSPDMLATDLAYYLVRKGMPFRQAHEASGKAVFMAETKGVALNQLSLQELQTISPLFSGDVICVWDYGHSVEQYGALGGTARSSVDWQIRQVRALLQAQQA
# UniProt Q9UII2: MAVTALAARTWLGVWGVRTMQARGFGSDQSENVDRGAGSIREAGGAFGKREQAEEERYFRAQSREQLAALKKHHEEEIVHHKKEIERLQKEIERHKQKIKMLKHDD
# UniProt P25705: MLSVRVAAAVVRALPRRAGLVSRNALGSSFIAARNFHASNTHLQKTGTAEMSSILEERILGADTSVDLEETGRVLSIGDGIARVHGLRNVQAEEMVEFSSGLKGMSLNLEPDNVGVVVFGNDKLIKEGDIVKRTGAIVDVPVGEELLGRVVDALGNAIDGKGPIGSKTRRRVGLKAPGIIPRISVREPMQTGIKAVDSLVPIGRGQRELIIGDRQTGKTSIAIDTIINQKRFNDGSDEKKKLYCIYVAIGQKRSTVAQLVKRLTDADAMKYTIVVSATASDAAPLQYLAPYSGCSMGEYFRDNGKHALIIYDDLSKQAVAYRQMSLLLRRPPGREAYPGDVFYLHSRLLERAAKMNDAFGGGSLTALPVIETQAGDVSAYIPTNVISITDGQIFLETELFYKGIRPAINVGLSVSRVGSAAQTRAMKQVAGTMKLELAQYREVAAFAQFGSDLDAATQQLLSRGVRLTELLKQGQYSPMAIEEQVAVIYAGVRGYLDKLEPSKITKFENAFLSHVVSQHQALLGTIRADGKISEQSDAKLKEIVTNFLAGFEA
# UniProt Q96IX5: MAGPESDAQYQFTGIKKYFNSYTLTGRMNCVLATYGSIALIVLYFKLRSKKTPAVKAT
# UniProt P98196: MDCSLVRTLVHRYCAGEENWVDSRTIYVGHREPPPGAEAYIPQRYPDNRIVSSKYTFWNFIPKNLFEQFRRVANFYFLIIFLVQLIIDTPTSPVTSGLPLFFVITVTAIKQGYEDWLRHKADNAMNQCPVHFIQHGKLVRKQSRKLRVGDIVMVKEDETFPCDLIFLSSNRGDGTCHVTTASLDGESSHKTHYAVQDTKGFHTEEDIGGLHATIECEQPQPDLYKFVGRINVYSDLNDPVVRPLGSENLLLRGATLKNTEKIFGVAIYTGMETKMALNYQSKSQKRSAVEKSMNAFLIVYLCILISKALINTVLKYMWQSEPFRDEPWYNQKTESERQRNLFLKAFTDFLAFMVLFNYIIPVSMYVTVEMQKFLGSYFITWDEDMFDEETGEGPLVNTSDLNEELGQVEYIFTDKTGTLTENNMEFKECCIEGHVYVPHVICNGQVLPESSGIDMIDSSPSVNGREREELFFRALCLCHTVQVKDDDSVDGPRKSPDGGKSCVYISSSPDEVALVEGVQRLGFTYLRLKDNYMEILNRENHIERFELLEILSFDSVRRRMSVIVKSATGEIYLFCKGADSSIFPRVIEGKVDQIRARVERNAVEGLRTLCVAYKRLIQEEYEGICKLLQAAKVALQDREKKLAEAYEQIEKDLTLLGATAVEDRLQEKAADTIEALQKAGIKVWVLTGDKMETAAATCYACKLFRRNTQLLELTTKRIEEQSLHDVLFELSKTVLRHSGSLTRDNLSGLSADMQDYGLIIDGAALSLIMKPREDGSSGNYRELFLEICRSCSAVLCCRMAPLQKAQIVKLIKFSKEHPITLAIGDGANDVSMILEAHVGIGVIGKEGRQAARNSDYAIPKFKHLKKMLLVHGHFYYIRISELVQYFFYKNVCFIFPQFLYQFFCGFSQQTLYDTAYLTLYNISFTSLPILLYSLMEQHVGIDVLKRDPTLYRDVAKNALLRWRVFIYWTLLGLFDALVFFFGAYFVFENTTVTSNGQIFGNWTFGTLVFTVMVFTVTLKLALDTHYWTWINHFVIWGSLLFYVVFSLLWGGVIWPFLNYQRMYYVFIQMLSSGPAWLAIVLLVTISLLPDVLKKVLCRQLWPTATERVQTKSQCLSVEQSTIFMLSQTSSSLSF
# How the values were obtained:
# Test in all cases: log2 fold change, soluble protein after heating vs DMSO (PISA); higher = thermal stabilisation; K562 lysate, 10 uM; active = over 0.2 and 3.5 SD of the protein, either way, in both replicates (recomputed)
# lapatinib = compound: CS(=O)(=O)CCNCc1ccc(-c2ccc3ncnc(Nc4ccc(OCc5cccc(F)c5)c(Cl)c4)c3c2)o1 [lapatinib]
# Procedure, shortened: (§1)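 Values give the log-two fold change in thermal stability against solvent controls, from duplicates. Crude K562 extract at 1 mg/mL protein, made by dounce homogenisation in PBS pH 7.4 with 1 mM MgCl2, was treated with 10 μM compound for 30 min. After 3 min heating across 48°C-58°C, aliquots were pooled, adjusted to 0.5% NP-40 at 4°C and centrifuged at 21,000xg for 90 min. The supernatant was measured by TMTpro 16plex LC-MS/MS with channel sums equalised.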
# pictilisib = compound: CS(=O)(=O)N1CCN(Cc2cc3nc(-c4cccc5[nH]ncc45)nc(N4CCOCC4)c3s2)CC1 [pictilisib]
# Procedure, shortened: as §1
# crizotinib = compound: C[C@@H](Oc1cc(-c2cnn(C3CCNCC3)c2)cnc1N)c1c(Cl)ccc(F)c1Cl [crizotinib]
# Procedure, shortened: as §1
# [1] = compound: C[C@H](C1=CC=C(C=C1)C(=O)NC2=C3C=CNC3=NC=C2)N
# Procedure, shortened: as §1
# duvelisib = compound: C[C@H](Nc1ncnc2nc[nH]c12)c1cc2cccc(Cl)c2c(=O)n1-c1ccccc1 [duvelisib]
# Procedure, shortened: as §1
# gandotinib = compound: Cc1cc(Nc2cc(CN3CCOCC3)c3nc(C)c(Cc4ccc(Cl)cc4F)n3n2)n[nH]1 [gandotinib]
# Procedure, shortened: as §1
# tozasertib = compound: Cc1cc(Nc2cc(N3CCN(C)CC3)nc(Sc3ccc(NC(=O)C4CC4)cc3)n2)n[nH]1 [tozasertib]
# Procedure, shortened: as §1
# doramapimod = compound: Cc1ccc(-n2nc(C(C)(C)C)cc2NC(=O)Nc2ccc(OCCN3CCOCC3)c3ccccc23)cc1 [doramapimod]
# Procedure, shortened: as §1
# bafetinib = compound: Cc1ccc(NC(=O)c2ccc(CN3CC[C@H](N(C)C)C3)c(C(F)(F)F)c2)cc1Nc1nccc(-c2cncnc2)n1 [bafetinib]
# Procedure, shortened: as §1
# [2] = compound: Cc1cccc(CC(=O)N2CCc3c2ccc(-c2cn(C)c4ncnc(N)c24)c3F)n1
# Procedure, shortened: as §1
# nilotinib = compound: Cc1cn(-c2cc(NC(=O)c3ccc(C)c(Nc4nccc(-c5cccnc5)n4)c3)cc(C(F)(F)F)c2)cn1 [nilotinib]
# Procedure, shortened: as §1
# [3] = compound: Cc1nc(Nc2n[nH]c3c2CN(C(=O)N[C@H](CN(C)C)c2ccccc2)C3(C)C)c2sccc2n1
# Procedure, shortened: as §1
# dasatinib = compound: Cc1nc(Nc2ncc(C(=O)Nc3c(C)cccc3Cl)s2)cc(N2CCN(CCO)CC2)n1 [dasatinib]
# Procedure, shortened: as §1
# [4] = compound: Cc1ncc(-c2ccnc(Nc3ccc(S(C)(=O)=O)cc3)n2)n1C(C)C
# Procedure, shortened: as §1
# [5] = compound: Cn1cc(-c2ccc3c(c2)CCN3C(=O)Cc2cccc(C(F)(F)F)c2)c2c(N)ncnc21
# Procedure, shortened: as §1
# quisinostat = compound: Cn1cc(CNCC2CCN(c3ncc(C(=O)NO)cn3)CC2)c2ccccc21 [quisinostat]
# Procedure, shortened: as §1
# tipifarnib = compound: Cn1cncc1[C@@](N)(c1ccc(Cl)cc1)c1ccc2c(c1)c(-c1cccc(Cl)c1)cc(=O)n2C [tipifarnib]
# Procedure, shortened: as §1
# [6] = compound: NC(=O)Nc1cc(-c2cccc(F)c2)sc1C(=O)N[C@H]1CCCNC1
# Procedure, shortened: as §1
# [7] = compound: NC(=O)c1cnc(N[C@@H]2CCCC[C@@H]2N)nc1Nc1cccc(-n2nccn2)c1
# Procedure, shortened: as §1
# [8] = compound: NC1(c2ccc(-c3nc4ccn5c(=O)[nH]nc5c4cc3-c3ccccc3)cc2)CCC1
# Procedure, shortened: as §1
Target,log2 fold change (lapatinib),log2 fold change (pictilisib),log2 fold change (crizotinib),log2 fold change [1],log2 fold change (duvelisib),log2 fold change (gandotinib),log2 fold change (tozasertib),log2 fold change (doramapimod),log2 fold change (bafetinib),log2 fold change [2],log2 fold change (nilotinib),log2 fold change [3],log2 fold change (dasatinib),log2 fold change [4],log2 fold change [5],log2 fold change (quisinostat),log2 fold change (tipifarnib),log2 fold change [6],log2 fold change [7],log2 fold change [8]
ATPAF1 (UniProt Q5TC12),inactive: 0.004,inactive: -0.027,inactive: -0.024,inactive: 0.15,inactive: 0.03,inactive: -0.061,inactive: 0.024,inactive: 0.047,inactive: -0.082,inactive: -0.05,inactive: 0.04,inactive: -0.015,inactive: -0.017,inactive: -0.036,inactive: -0.054,inactive: -0.042,inactive: -0.017,inactive: 0.001,inactive: 0.017,inactive: 0.006
AVL9 (UniProt Q8NBF6),inactive: 0.009,inactive: -0.023,inactive: -0.026,inactive: -0.097,inactive: -0.056,inactive: 0.12,inactive: -0.018,inactive: 0.062,inactive: -0.012,inactive: 0.08,inactive: 0.01,inactive: 0.006,inactive: 0.015,inactive: -0.016,inactive: -0.037,inactive: -0.088,inactive: 0.01,inactive: -0.002,inactive: -0.012,inactive: -0.002
ASRGL1 (UniProt Q7L266),inactive: -0.002,inactive: 0.023,inactive: -0.002,inactive: -0.024,inactive: -0.014,inactive: 0.062,inactive: 0.026,inactive: 0.009,inactive: -0.08,inactive: 0.011,inactive: 0.044,inactive: -0.012,inactive: 0.03,inactive: 0,inactive: 0.021,inactive: -0.002,inactive: 0.072,inactive: -0.023,inactive: -0.03,inactive: 0.004
B2M (UniProt P61769),inactive: -0.045,inactive: -0.018,inactive: 0,inactive: -0.012,inactive: 0.057,inactive: 0.031,inactive: -0.013,inactive: 0.009,inactive: -0.042,inactive: 0.054,inactive: 0.021,inactive: 0.033,inactive: 0.166,inactive: 0.019,inactive: -0.121,inactive: -0.072,inactive: 0.04,inactive: -0.005,inactive: -0.033,inactive: 0.012
ATP5PF isoform 2 (UniProt P18859),inactive: 0.04,inactive: -0.088,inactive: 0.054,active: 0.591,inactive: -0.021,inactive: -0.185,inactive: -0.018,inactive: -0.083,inactive: 0.221,inactive: -0.19,inactive: 0.059,inactive: 0.046,inactive: 0.026,inactive: 0.164,inactive: -0.013,inactive: 0.11,inactive: 0.066,inactive: -0.058,inactive: -0.029,inactive: -0.051
ATP5PO (UniProt P48047),inactive: -0.027,inactive: 0.012,inactive: 0.02,inactive: 0.034,inactive: -0.036,inactive: -0.033,inactive: -0.013,inactive: -0.032,inactive: 0.12,inactive: -0.062,inactive: 0,inactive: -0.013,inactive: 0.02,inactive: 0.005,inactive: -0.016,inactive: 0.027,inactive: 0.003,inactive: 0.006,inactive: -0.007,inactive: 0.011
ATG2A isoform 3 (UniProt Q2TAZ0),inactive: -0.029,inactive: 0.057,inactive: -0.087,inactive: -0.017,inactive: 0.005,inactive: -0.123,inactive: -0.012,inactive: -0.003,inactive: -0.09,inactive: 0.203,inactive: 0.088,inactive: -0.015,inactive: -0.054,inactive: 0.019,inactive: 0.042,inactive: -0.047,inactive: -0.113,inactive: 0.017,inactive: 0.022,inactive: -0.061
ATIC (UniProt P31939),inactive: -0.006,inactive: -0.023,inactive: -0.032,inactive: 0.03,inactive: -0.022,inactive: -0.021,inactive: -0.033,inactive: -0.011,inactive: 0.01,inactive: -0.016,inactive: 0.005,inactive: -0.002,inactive: -0.011,inactive: 0,inactive: 0.001,inactive: 0.008,inactive: 0.022,inactive: -0.001,inactive: -0.003,inactive: -0.006
ATP6AP2 (UniProt O75787),inactive: 0.029,inactive: -0.044,inactive: -0.003,inactive: 0.019,inactive: 0.001,inactive: -0.112,inactive: -0.005,inactive: 0.01,inactive: -0.003,inactive: -0.064,inactive: -0.014,inactive: -0.011,inactive: 0.008,inactive: -0.018,inactive: 0.004,inactive: 0.012,inactive: -0.03,inactive: -0.016,inactive: -0.017,inactive: 0.011
ATPAF2 (UniProt Q8N5M1),inactive: -0.028,inactive: 0.031,inactive: -0.066,inactive: -0.229,inactive: 0.042,inactive: 0.075,inactive: -0.034,inactive: -0.007,inactive: -0.057,inactive: 0.103,inactive: -0.034,inactive: 0.056,inactive: -0.008,inactive: 0.1,inactive: 0.001,inactive: -0.152,inactive: 0.019,inactive: 0.033,inactive: 0.005,inactive: 0
ASL (UniProt P04424),inactive: -0.023,inactive: 0,inactive: 0.037,inactive: -0.003,inactive: 0.029,inactive: -0.016,inactive: -0.009,inactive: -0.023,inactive: -0.05,inactive: -0.009,inactive: 0.017,inactive: -0.014,inactive: -0.017,inactive: 0.01,inactive: -0.012,inactive: 0.017,inactive: 0.016,inactive: 0,inactive: 0.021,inactive: -0.003
ATP5IF1 (UniProt Q9UII2),inactive: -0.043,inactive: 0,inactive: -0.002,inactive: -0.044,inactive: -0.005,inactive: 0.211,inactive: 0,inactive: -0.051,inactive: 0.02,inactive: 0.113,inactive: -0.008,inactive: -0.04,inactive: -0.013,inactive: 0.026,inactive: -0.028,inactive: 0.009,inactive: -0.015,inactive: -0.071,inactive: 0.002,inactive: 0.002
ATP5F1A (UniProt P25705),inactive: -0.025,inactive: -0.003,inactive: 0.019,inactive: 0.03,inactive: 0.008,inactive: -0.001,inactive: 0.007,inactive: -0.003,inactive: 0.014,inactive: -0.027,inactive: -0.002,inactive: -0.017,inactive: -0.032,inactive: -0.016,inactive: 0.014,inactive: -0.02,inactive: 0.002,inactive: -0.004,inactive: -0.004,inactive: -0.002
ATP5MD (UniProt Q96IX5),inactive: -0.011,inactive: 0.013,inactive: 0.089,inactive: -0.266,inactive: -0.034,inactive: 0.025,inactive: 0.034,inactive: -0.088,inactive: -0.014,inactive: 0.041,inactive: -0.016,inactive: 0.022,inactive: 0.192,inactive: 0.059,inactive: -0.029,inactive: 0.241,inactive: 0.02,inactive: -0.068,inactive: -0.007,inactive: 0.046
ATP11A (UniProt P98196),inactive: -0.118,inactive: -0.087,inactive: -0.005,inactive: -0.108,inactive: 0.081,inactive: 0.017,inactive: 0.009,inactive: -0.07,inactive: -0.05,inactive: 0.1,inactive: -0.046,inactive: -0.053,inactive: 0.018,inactive: 0.011,inactive: 0.035,inactive: 0.002,inactive: 0.019,inactive: 0.043,inactive: -0.045,inactive: -0.012
ATF7IP isoform 4 (UniProt Q6VMQ6),inactive: -0.006,inactive: 0.017,inactive: 0.014,inactive: 0.077,inactive: 0.017,inactive: -0.039,inactive: 0.059,inactive: -0.008,inactive: -0.005,inactive: -0.017,inactive: 0.048,inactive: 0.001,inactive: 0.007,inactive: 0.002,inactive: -0.034,inactive: -0.017,inactive: 0.027,inactive: 0.01,inactive: 0.035,inactive: 0.032

# Single records, as listed above. Order of values: log2 fold change (lapatinib)	log2 fold change (pictilisib)	log2 fold change (crizotinib)	log2 fold change [1]	log2 fold change (duvelisib)	log2 fold change (gandotinib)	log2 fold change (tozasertib)	log2 fold change (doramapimod)	log2 fold change (bafetinib)	log2 fold change [2]	log2 fold change (nilotinib)	log2 fold change [3]	log2 fold change (dasatinib)	log2 fold change [4]	log2 fold change [5]	log2 fold change (quisinostat)	log2 fold change (tipifarnib)	log2 fold change [6]	log2 fold change [7]	log2 fold change [8]
# ATF7IP isoform 4 (UniProt Q6VMQ6) is listed as inactive: -0.006	inactive: 0.017	inactive: 0.014	inactive: 0.077	inactive: 0.017	inactive: -0.039	inactive: 0.059	inactive: -0.008	inactive: -0.005	inactive: -0.017	inactive: 0.048	inactive: 0.001	inactive: 0.007	inactive: 0.002	inactive: -0.034	inactive: -0.017	inactive: 0.027	inactive: 0.01	inactive: 0.035	inactive: 0.032
# ATP5MD (UniProt Q96IX5) is listed as inactive: -0.011	inactive: 0.013	inactive: 0.089	inactive: -0.266	inactive: -0.034	inactive: 0.025	inactive: 0.034	inactive: -0.088	inactive: -0.014	inactive: 0.041	inactive: -0.016	inactive: 0.022	inactive: 0.192	inactive: 0.059	inactive: -0.029	inactive: 0.241	inactive: 0.02	inactive: -0.068	inactive: -0.007	inactive: 0.046

# Source: the supplement of paper PMC10849652
